# Experimental data: PMC7819943, “Rice protein-binding microarrays: a tool to detect cis-acting elements near promoter regions in rice”
# Protein sequences, listed by entry. Tags and fused reporters are not part of them.
# UniProt Q0JBA9, entry or part of it: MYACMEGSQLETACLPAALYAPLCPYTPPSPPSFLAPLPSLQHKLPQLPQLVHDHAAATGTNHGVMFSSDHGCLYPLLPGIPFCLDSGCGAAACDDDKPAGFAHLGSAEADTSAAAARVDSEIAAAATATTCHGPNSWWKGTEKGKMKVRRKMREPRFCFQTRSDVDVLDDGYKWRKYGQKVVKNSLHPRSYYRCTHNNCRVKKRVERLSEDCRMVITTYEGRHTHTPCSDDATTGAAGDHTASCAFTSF
# The list shows a part of the results.
# Biological target: OsWRKY34 (Oryza sativa, UniProt Q0JBA9 1-250)
# Experiment: protein-binding microarray (RPBM); PBS, 2% BSA, 51.3 ng/ul salmon testes DNA, 50 uM zinc acetate, 200 nM TF, 25 C, 1 h; high values mean tight binding
# Details: protein: recombinant; tags: N-terminal polyhistidine and DsRed monomer fusion (pET32a); label: CyDye5-dUTP incorporated in the synthesized complementary strand; 3' TTTTT single-stranded linker to array surface; dsDNA, one strand shown
# How it was run: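 In PBS with 2% BSA, salmon testes DNA and 50 µM zinc acetate, 200 nM protein was incubated on a custom Agilent array at 25 °C for 1 h and then washed off. The array had been made double-stranded by primer extension with Cy5-dUTP and blocked with 2% BSA. The proteins were transcription factors fused N-terminally to polyhistidine and DsRed, expressed in E. coli BL21-CodonPlus and purified on Ni–NTA. The binding signal is per-feature fluorescence intensity (arbitrary units) from an Axon 4000B scanner.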
row,Sequence,binding signal
1,CACTGTGTCGTGCTTCATCCATCTTAAAATAATCTTATCTCGGAGTCACCTAGTGCAG,8550 fluorescence intensity (a.u.)
2,ATTTAAATTTTAGCTTATACTACCTCCGTCCCATTATAAGCGGAGTCACCTAGTGCAG,8220 fluorescence intensity (a.u.)
3,CGCGTGAATGGGCGGGCTACCTTTCTAGTTGTACTAAATCCGGAGTCACCTAGTGCAG,9650 fluorescence intensity (a.u.)
4,CGCTCCACATAGGCTAGGCCCATGTCCCTTAGAGGATCCTCGGAGTCACCTAGTGCAG,8380 fluorescence intensity (a.u.)
5,GCGCAACTGGCAGATTCGTGGGGATTCGTGGGGATAATATCGGAGTCACCTAGTGCAG,10900 fluorescence intensity (a.u.)
6,GTATCCGTATAAGACATGGTATGTGGTGGGTTCTGCCAAGCGGAGTCACCTAGTGCAG,8040 fluorescence intensity (a.u.)
7,ATACCTTCCACTTCCCGGCCCCGCCGCCGTTCCTGCCCCTCGGAGTCACCTAGTGCAG,9050 fluorescence intensity (a.u.)
8,AAAATTCTTATTACGTGGGCGGTGGGCTAACATGCTTTAACGGAGTCACCTAGTGCAG,9900 fluorescence intensity (a.u.)
9,TATATATATATATATATATATATAAAGAACACACAAAAAACGGAGTCACCTAGTGCAG,8150 fluorescence intensity (a.u.)
10,AGGCATTAGTTACCTGGTTTTGCGATTGAGTATATGAATCCGGAGTCACCTAGTGCAG,9400 fluorescence intensity (a.u.)
11,GCAACATCGCGGTCAAGCTACCGGACAACTCGACCGACCACGGAGTCACCTAGTGCAG,8430 fluorescence intensity (a.u.)
12,TCCCTATCAGCTCAGGTCTCTCTCGATCTCTCCTAGCTAGCGGAGTCACCTAGTGCAG,9650 fluorescence intensity (a.u.)
13,GCTGTGTGAACTTCTTTTTTCGTGACAAGTTTAATTCTTTCGGAGTCACCTAGTGCAG,12400 fluorescence intensity (a.u.)
14,AGCCACAACCCGCTGGCCAAATCGCTTGCGCTCTATCGCACGGAGTCACCTAGTGCAG,8240 fluorescence intensity (a.u.)
15,TAGCCATCGCCACCACCACCGCCACCGCCACCGCCACGCTCGGAGTCACCTAGTGCAG,8660 fluorescence intensity (a.u.)
16,TACTCGCTTCGTCCCACACGAAGATTTCATTTTTCAGTTTCGGAGTCACCTAGTGCAG,9060 fluorescence intensity (a.u.)
17,ACCGTGTTGCTGCCTGGTGCTCGCTTTGTTCGTAGGCCTTCGGAGTCACCTAGTGCAG,8520 fluorescence intensity (a.u.)
18,AAGTGTCTTCCTGCTGATATCTCCCATCTGTCCCCTATTGCGGAGTCACCTAGTGCAG,8460 fluorescence intensity (a.u.)
19,GAGTCATAGTAGTGTAGTAGTGGGTCAACTCAGTCAAGTCCGGAGTCACCTAGTGCAG,8290 fluorescence intensity (a.u.)
20,CTTCTCTCTCTCTGCATCCAGCCGATATATATACCACCAGCGGAGTCACCTAGTGCAG,10100 fluorescence intensity (a.u.)
21,TCTTCCTCAGATACTGATTGCCATTGTTTTGCAGGTCTCTCGGAGTCACCTAGTGCAG,10700 fluorescence intensity (a.u.)

row,Sequence,binding signal
1,CATGCCCAATACCTCACATGATTATTTTGTTCACATCGTACGGAGTCACCTAGTGCAG,13500 fluorescence intensity (a.u.)
2,TTCATTTTGTTGGCTAGAGTGTAGTTTGGATTTTGATGGCCGGAGTCACCTAGTGCAG,8180 fluorescence intensity (a.u.)
3,GGTTTCTTCTCATTCTTCTTTTTTTCCTTTTTTCTACACGCGGAGTCACCTAGTGCAG,14000 fluorescence intensity (a.u.)
4,ATTTCCCACCCAATCTCCCGGCCTGCTTCCTTCACACGAGCGGAGTCACCTAGTGCAG,8040 fluorescence intensity (a.u.)
5,AAGTTTATTTTTCACCCATTCTACACATACCCATACAAAACGGAGTCACCTAGTGCAG,8240 fluorescence intensity (a.u.)
6,GACTAATAGCTTCAGTTTTGCATGCGATGGCCACTCAAATCGGAGTCACCTAGTGCAG,10100 fluorescence intensity (a.u.)
7,CGCAGAACACGTTTCCCAAATCTTGTACTACTACGTACTACGGAGTCACCTAGTGCAG,9170 fluorescence intensity (a.u.)
8,CTCCATACCGCCGGCCTCTATAGGCGCCGCACATGTCATCCGGAGTCACCTAGTGCAG,9690 fluorescence intensity (a.u.)
9,ACTAATAATGAAAATTTCCACACCCTTGCTTTTCTAATTTCGGAGTCACCTAGTGCAG,9150 fluorescence intensity (a.u.)
10,CTCCACCGCCGCCGCCGCCGACGACGTCGCCGCCGTTCCCCGGAGTCACCTAGTGCAG,8710 fluorescence intensity (a.u.)
11,AGTCAATATCTTGCTTTGATACCTTTTTTTTTGCATTTTTCGGAGTCACCTAGTGCAG,8050 fluorescence intensity (a.u.)
12,GCCCATACCCCAATTCTCCCTACTACTTTGGGCTGAAACGCGGAGTCACCTAGTGCAG,8200 fluorescence intensity (a.u.)
13,TCTCCTCCGTCCGCCGCCTCCGCCGTCGCGCCGATCTCCCCGGAGTCACCTAGTGCAG,8500 fluorescence intensity (a.u.)
14,CTTTAAACGTTGGCCTCTTGTTAGTCGATGCAATCATCTTCGGAGTCACCTAGTGCAG,8100 fluorescence intensity (a.u.)
15,TTGGCGTTGTATATGTTACTGCTTCCGCCGTTCTAAAATACGGAGTCACCTAGTGCAG,8140 fluorescence intensity (a.u.)
16,TCCAAGTCGCCCATCATGCATCCTACGGTCTGCACACCAACGGAGTCACCTAGTGCAG,9520 fluorescence intensity (a.u.)
17,TCCCATCTCTCTTGTCAAGTCGTCAGCCAGCCAGCCTGCCCGGAGTCACCTAGTGCAG,13400 fluorescence intensity (a.u.)
18,GAGTGTGGAGGATTGAGGAATTGGGGTTTAGTTTTTATATCGGAGTCACCTAGTGCAG,13000 fluorescence intensity (a.u.)
19,CAATATGTGTTTATAGCTGGCTTACATTATGCTATTGTACCGGAGTCACCTAGTGCAG,8490 fluorescence intensity (a.u.)
20,ATCTAGCTCAATTGGCTAATTACGTGCCCAACTCAACTGCCGGAGTCACCTAGTGCAG,9550 fluorescence intensity (a.u.)
21,GCTAGGATGGTTTGGGATTGTGTGGGTTATGTTGTCTTTGCGGAGTCACCTAGTGCAG,9050 fluorescence intensity (a.u.)
